# According to article PMC7244744, “Vesicular transport mediates the uptake of cytoplasmic proteins into mitochondria in Drosophila melanogaster” (Nature Communications, 2020):
# T1: Dosmit (downsizing mitochondria), endogenous in S2 cells (Drosophila melanogaster (endogenous in S2 cells)) (UniProt Q9VAM6)
# T1 sequence: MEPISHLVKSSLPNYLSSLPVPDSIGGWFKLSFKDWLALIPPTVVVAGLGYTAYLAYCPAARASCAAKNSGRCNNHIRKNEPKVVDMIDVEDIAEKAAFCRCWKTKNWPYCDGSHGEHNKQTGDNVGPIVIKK
# B1: Dosmit (downsizing mitochondria), endogenous in fly flight muscle (natural protein, UniProt Q9VAM6 1-133, looked up)
# chain: T1 sequence
# notes: endogenous protein of flight muscle; Seen as monomer and dimer (Dosmit*) bands on western blots; the dimer band is reduced to the monomer by DTT; also called Dosmit* (dimer form); CG1458; source: endogenous, flight-muscle tissue homogenate of wild-type flies (mitochondrial fraction)
# Key:
# [1] = target: T1, Dosmit (downsizing mitochondria), endogenous in S2 cells (Drosophila melanogaster (endogenous in S2 cells)); assay: co-IP; lysate of S2 cells transfected with Rab32-HA or Hsc70-5-HA; immunoprecipitation of endogenous Dosmit with anti-Dosmit antibody and protein G Mag Sepharose beads, 4 °C; lysis buffer 50 mM Tris-HCl pH 8.0, 100 mM NaCl, 5 mM EDTA, 0.5% Nonidet P-40; blot for HA
# [2] = target: Rab32-HA (Drosophila melanogaster); assay: co-IP; lysate of S2 cells transfected with Rab32-HA or Hsc70-5-HA; immunoprecipitation with anti-HA antibody and protein G Mag Sepharose beads, 4 °C; lysis buffer 50 mM Tris-HCl pH 8.0, 100 mM NaCl, 5 mM EDTA, 0.5% Nonidet P-40; blot for endogenous Dosmit
Molecule,binding [1],binding [2]
Rab32-HA (Drosophila melanogaster),binds,
B1,,binds

# No constants are given. Whether binding was seen depends on the method and setting. Binding seen in cells or lysates may run through a third protein. Binding can be weak; no strength is given.
